Experimental data: patent US20090105467
No signal at the amounts used counts as a negative. For some of these results: Where a protein sequence is shown, tags need not be part of it. Construct, isoform or probe ends are uncertain for at least one entry. For some of these results: Where cells or extracts were used, other partners may take part.

Key:
[1] = biological target: T1, RNase H (Escherichia coli) (UniProt P0A7Y4); test: enzyme reaction in vitro; settings: purified recombinant protein, label: 5'-32P on target RNA
T1 sequence (looked up, limits assumed): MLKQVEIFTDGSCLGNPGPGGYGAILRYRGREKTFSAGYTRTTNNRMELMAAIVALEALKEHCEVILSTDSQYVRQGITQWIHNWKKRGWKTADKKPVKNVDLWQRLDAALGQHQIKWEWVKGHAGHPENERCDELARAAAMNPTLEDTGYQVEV

[2] = test system: HeLa cell crude extract proteins (Homo sapiens); test: EMSA; settings: protein in an extract, label: 5'-32P

TTTTTTTTTTTTTTTTTT [2'F-araT18/rA18] was tested, and the “activity on this sequence” value ([1]; all 2'-deoxy-2'-fluoro-beta-D-arabinose (2'F-ANA) in test strand, 2.5 mM MgCl2, 22 C, DNA:RNA hybrid, variant of dT18/rA18) was “active”.
TTTTTTTTTTTTTTTTTT [2'F-araT18]: no binding ([2]; all 2'F-ANA, no appreciable interaction, synthetic backbone, variant of dT18).
TTTTTTTTTTTTTTTTTT [2'F-riboT18]: no binding ([2]; 2'-F (ribo) throughout, no appreciable interaction, synthetic backbone, variant of dT18).
In the case of TTTTTTTTTTTTTTTTTT [PS-dT18/rA18], the “activity on this sequence” value ([1]; PS throughout test strand, 2.5 mM MgCl2, 22 C, DNA:RNA hybrid, variant of dT18/rA18) is reported as “active”.
TTTTTTTTTTTTTTTTTT [PS-dT18]: binds ([2]; PS throughout, essentially all bound, 100 mM KCl, 1 mM MgCl2, 25 C, single-stranded DNA, variant of dT18).
In the case of TTTTTTTTTTTTTTTTTT [dT18/rA18], the “activity on this sequence” value ([1]; 2.5 mM MgCl2, 22 C, DNA:RNA hybrid) is reported as “active”.
TTTTTTTTTTTTTTTTTT [dT18]: no binding ([2]; no appreciable interaction, single-stranded DNA).
“UUUUUUUUUUUUUUUUUU / AAAAAAAAAAAAAAAAAA [rU18/rA18]” was tested, and the “activity on this sequence” value ([1]; duplex formed, not cleaved, variant of dT18/rA18) was “not active”.
“UUUUUUUUUUUUUUUUUU [araU18 + rA18 (no duplex)]” was tested, and the “activity on this sequence” value ([1]; all beta-D-arabinose in test strand, no duplex formed, variant of dT18/rA18) was “not active”.
UUUUUUUUUUUUUUUUUU [araU18]: no binding ([2]; all beta-D-arabinose, no appreciable interaction, synthetic backbone, variant of dT18).
